Screen size: about 53,000 sequences; about 3,700 (7%) were called active.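 The calls were made as follows: active = gene knockdowns whose robust z-score for IL-1 alpha signal is at least 2 or at most -2, so actives lie on both sides; inactive = the rest.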 The list shows a part of the results.
Assay: Components of the Cytosolic LPS Sensing Pathway: Gene Identification via Genome-wide siRNA Screen;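 also: robust z of the log signal after scaling to non-targeting control siRNA wells of the plate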
Conditions: RAW264.7 macrophages, IL-1a HTRF, actives lie on both sides, screened at 100 nM (by protocol), cells primed 5 h with Pam3CSK4 first
Summary of the method: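 Mouse macrophage line RAW264.7 is transfected with siRNA (100 nM final), grown 48h, primed with TLR ligand Pam3CSK4 5 h and given intracellular LipidA 24 h. IL-1a in supernatant is read by HTRF and viability by luminescence.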

Sequence	z-score
GGAGAAGGGCCUGAAGUAUTT against Lsm5	inactive: -1.77
CCAAAUUAGCUUAUGUUCUTT against Sgo1	inactive: -0.109
GGAGAAUCUGAAGGACACCTT against Cd151	inactive: -0.126
GGUCUUUGUGUCCACCUACTT against Gpr162	inactive: 0.669
GCAAUUAGUAACUGAGAAUTT against Dpp10	inactive: 0.0628
GGAUCAACGAGGUAAAGUCTT against Itga8	inactive: 0.101
GAUGACUUUAUCCUCUUGGTT against Olfr1396	inactive: -0.771
GGUGGUUGGAGUACUCAAGTT against Capza1	active: -2.53
GCAAGAUCUGUGUAAAUGGTT against Gpx4	inactive: 0.894
GGUGUAAUUGGGAAAAUUCTT against Inpp5f	inactive: -1.17
GGCUCUAAACAAAAUUCAGTT against Gtf2e2	inactive: 0.407
GGACAGGAUGGAUGGAAGUTT against Ing5	inactive: -0.697
GGUGGUUGUGCAAUAUAGUTT against Atxn1	inactive: 0.149
CCAAGUGUGAUCUCCAUCATT against Gm5124	inactive: -0.334
GGAAUUGGAUGCCAUCAUCTT against Tnnc2	inactive: 0.0937
GGCCAUUUCCGUUUUAGGATT against Olfr319	inactive: -1.69
GGUGCAAGUUCGAACCAAGTT against Cdca8	inactive: 0.255
GCCGGAAUCAGUGAAAGGCTT against Trafd1	inactive: 1.82
CCCAGGGUGUCAAUCUAAATT against Cby1	inactive: -0.381
GGUACUCAUCCCUUCCUGATT against Mc1r	inactive: -0.129
CCUACAGAGUACCCUGUCUTT against Gas2l2	active: -2.56
GCUGUAUUGUGCAAAUGGCTT against Prkci	inactive: -0.511

Sequence	z-score
GGAACAUCUCUGAAUUAUGTT against Ndel1	inactive: 0.335
GGAGGUAUUUCAAAUUGCUTT against Appl1	inactive: 0.0259
CCUCUAUGAGUGUAAACCATT against Crim1	inactive: -0.927
GCUAUGCACUUUGUGGACCTT against Zpbp2	inactive: 0.138
GGAGGAUACCUUCUUCUACTT against Mta3	inactive: 0.354
GCUGUCAGUCAAUACAAAATT against Ccdc33	inactive: 1.04
GGGCUUCAACACUGAGAAGTT against Arl4d	inactive: -1.04
GGCUCAGAAUUGAUCCUAUTT against Atxn3	inactive: 1.51
GGCUUCAACCGGAGAUUUATT against Pde8b	inactive: 0.491
GCUUAUGCCAGUCUGUCAUTT against Hax1	inactive: -0.206
GGAAGCUUCGAAAGUUUAUTT against Cmtm2b	inactive: 0.755
GCUCAUCGAGCCUGUACACTT against Med26	inactive: -0.296
GGUCUACUGACUCAAAGUCTT against Mrps33	active: 2.2
CCGGCUAAAUCACCGUGCUTT against Clpb	inactive: -0.647
CCACGUUAUCAGCUAUUACTT against Exoc7	inactive: 0.468
GGACUUUAAGCUCGACUUCTT against Ggct	inactive: -0.84
GGAAUUAUUCAGCAAGACUTT against Cdrt4	inactive: -0.636
GCAAAGUCAAGAGAAGUAUTT against A430033K04Rik	inactive: 0.49
GGGACAACUUUGCACAGGATT against Gfap	inactive: 0.166
GCAAGGUGACUCGAAGAAATT against Spry1	inactive: -0.102
GGGCUGAAGAUAAUGCAGATT against Pcna	inactive: 0.167
GGUCCAAAAAAGGUUCAAATT against Btbd3	inactive: 0.164

Sequence	z-score
GGAUGGCAUGUCCUUCCAATT against Elf3	active: 2.85
GCAAGUAGAAACCCUUAAUTT against Scara5	inactive: -0.0354
GCUUUUCAUGGACACAUUCTT against Nsun4	inactive: 1.48
CCAGCAGUAAACUGGAAAUTT against Arhgap25	inactive: -1.53
GCGGUACCUUCACUUGCAUTT against Lrfn1	inactive: -0.509
GGGUUGUGCAAAUUGGGCUTT against Olfr570	inactive: 0.974
GGUGAACACAACCAAACCATT against Lima1	inactive: -0.51
GAGGGACUGUAAUGUUGACTT against Olfr560	inactive: 0.0877
GCCAUCAACCAAAACAUCCTT against Gm5941	inactive: 0.895
GCUUGUGCAAAGAACAUGUTT against Itgad	inactive: 0.766
GGAAUUCAAUGACGUGUACTT against Mapk14	inactive: 0.493
GGCUCAUUCGGACUAUAUGTT against Cadm1	inactive: -1.51
GCGGGAAAUCACGAAGAUATT against Wdr31	inactive: -1.18
CGAGUGAGUCACGUAUCAUTT against 4930544M13Rik	inactive: 0.583
GGAUUCUUUGGUCUAUUUCTT against Pudp	inactive: -0.308
GGUCACCACUCCAUAUUCUTT against Vsir	inactive: -0.561
GCUUCUACCCUUAAUGCCATT against Fastkd5	inactive: -1.35
GGUAGAAAACUAGCUAAUATT against Slc35e3	inactive: 0.991
GCUGGAAGUGAACAUCGAUTT against Gng8	inactive: 1.11
GGUGUUCAGGAGAUGAUGCTT against Cdt1	inactive: 0.0123
GGAAGACAUAGAAGAAAAGTT against Zdhhc12	inactive: -0.926
GCUAACAUGUUGUCUUAAATT against Tspan12	inactive: 0.644

Sequence	z-score
CCUGUUAGAACAUAAGGGCTT against Thy1	inactive: 0.0968
GGGCUAUUGCAUCUUUUAATT against Olfr711	inactive: -0.0884
GGAUCCAUCCGUCUCUAAGTT against Rprd2	inactive: 0.628
CCGGUUUCAAAUUGCCACUTT against Psmb4	active: -2.73
GGACUGAGGUAUCAUUUACTT against Gtf2f2	inactive: 0.953
GCUCCUAGACAACAUCGUGTT against Ppp1r3b	inactive: 1.81
CCCAUUUGCUCUGUGGAUCTT against Tha1	inactive: 0.289
GGAAGCUGAAGGUUUGCCATT against Wipi2	inactive: -0.529
GGUAAGUCACCAUUAUACCTT against Pcdhb12	inactive: 1.31
GCCUUUCUUCUGUCAAUGATT against Olfr281	active: 2.38
GGAAGUGAUGAUAAGUCUATT against D6Wsu163e	inactive: 1.18
GGAAACACCAGAGAAGUCCTT against Etf1	inactive: -0.56
GGCCAGAGACUGCCUGAUUTT against Acaa1b	inactive: 0.225
GGAAGAAAACAUUUAGCCCTT against Mmd2	inactive: 0.504
GCUGACCACUUCAAGGUUGTT against Lgals3	inactive: 0.468
GGAGAACCUGAGCUAUGAUTT against Hsph1	inactive: -0.54
GGUUCCAUCGAAAUUGACGTT against Plekhs1	inactive: -0.579
GCGUAGAAGACACUUAUAGTT against Zc3h14	inactive: 1.47
GGGAGAAGAAAAUGACUUUTT against Edaradd	inactive: -0.0664
GGAAAUCGAAUGAAUAACCTT against Klf12	active: 3.45
AUGCUUUGAUCAGUAUGAATT against Vmn1r188	active: -2.38
GGAAAAAAAAAUCAGAAGGTT against Trp53bp2	inactive: 0.302

Sequence	z-score
CCCGUAUGAGAAGUUCUAATT against Pttg1ip	inactive: -0.394
GGCAUUGUCCUGUGAUCUCTT against Il10ra	inactive: -0.724
CCCUAUGCAAUAUAUAGACTT against Tmsb15l	inactive: 0.174
GGUUGCCUCAACUCCAUUGTT against Olfr1412	inactive: -0.426
GGAAAUACAAGUGGAAUUGTT against Etnppl	inactive: 0.204
GGACAGAUGCCAUCUCAGUTT against Anxa7	inactive: -1.02
CGUAAAGCUUCCUGUGUCUTT against Tyw3	inactive: -0.454
GCAGAGGUCUUACAAUUUATT against Epb41l2	inactive: 0.624
GGCCUGGUAUAUAUCUGUCTT against Olfr6	inactive: -1.41
GGUUGUUGGCUGGAUGAUATT against Acvr2a	inactive: -1.29
CGAAUCCUCACUAAAUUGGTT against Cnn3	inactive: -1.32
GGAACUUUCCUUUUUUGUCTT against Serpinb5	inactive: 0.889
GGUUUUGAAAUUCCAGAAUTT against Nol9	inactive: -0.22
GGAAAUUUAGAGUGGUUCGTT against Wdyhv1	inactive: -0.246
GGAAAGUCCUUCAUCAGCATT against Cep120	active: -2.91
GGAGAAGAAGAAAUCCAAATT against Scn11a	inactive: 1.45
GGUCAAUGAGUUAGCUAUATT against Olfr1132	inactive: -1.85
CCCAGGCUCCUAUUUGUUUTT against Calml3	inactive: 0.288
CCUCCUUUAAGGAAAACCCTT against Alb	inactive: -1.38

Source: PubChem BioAssay AID1508600 (Functional Genomics Laboratory (NCATS/FGL), 2020)
